Screen size: about 220,000 compounds; about 2,400 (1.1%) were called active. The shares of active, inactive and inconclusive entries below differ from those in the screen. Calls follow the shape of the dose curve; as a rule, active = well fitted inhibition curve with a large enough effect; inconclusive = small, poorly fitted or top-dose-only effect, or effect the other way; inactive = no such curve, though single readings can be large or run the other way. A potency beside an inconclusive call is a rough fit, not a confirmed value.
Test: qHTS Multiplex Assay to Identify Dual Action Probes in a Cell Model of Huntington: Aggregate Formation (GFP); also: nearly all actives have a fitted effect of over 60% in size
Conditions: PC12 HttQ103-GFP aggregates, Acumen cytometry, 40 h; activity change, negative = inhibition: at 46.1 µM (top of the series)
In short: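 PC12/HTTQ103-GFP, ecdysone-inducible; teb 100 nM; cpd qHTS titration; GFP aggregates read on laser cytometer, Ex 488/Em 500-530 nm.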
% is scaled to controls: 0 for no effect and ±100 for the full control effect; potency is read from the fitted curve at half-maximal effect.

Row | Compound | activity change, negative = inhibition | Potency
1 | Cc1sc(-n2c(C)cc(C=C3C(=O)NC(=O)NC3=O)c2C)c(C#N)c1C | inactive: 6.81% | 
2 | CCC(=NCc1ccc(F)cc1)c1c(O)n(C)c(=O)n(C)c1=O |  | inconclusive: 7.94 µM [inhibitor, partial curve]
3 | CN1CCN(c2ncnc3ccc(Br)cc23)CC1 |  | inconclusive: 6.31 µM [inhibitor, single point]
4 | CCOP(=O)(OCC)c1nc(-c2cccc3ccccc23)oc1N1CCCCC1 |  | inconclusive: 35.5 µM [inhibitor, single point]
5 | CCOP(=S)(OCC)N1CCOCCOCCN(P(=S)(OCC)OCC)CCOCCOCC1 | inactive: 16.4% | 
6 | Clc1cccc(N2CCNCC2)c1 |  | inconclusive: 35.5 µM [activator, single point]
7 | CN1CCN(c2ccc([N+](=O)[O-])c3no[n+]([O-])c23)CC1 |  | inconclusive: 5.62 µM [inhibitor, single point]
8 | Clc1ccc(CSC(Cn2ccnc2)c2ccc(Cl)cc2Cl)cc1 (stereo unspecified) |  | inconclusive: 35.5 µM [inhibitor, single point]
9 | CN(C)C(=S)SC(=S)N(C)C |  | active: 3.16 µM
10 | CC(C)Oc1cc(-n2c(=S)[nH]c3ccccc3c2=O)c(Cl)cc1Cl |  | inconclusive: 11.2 µM [inhibitor, single point]
11 | CCOC(=O)c1c(C)n(Cc2ccccc2)c2ccc(OCC(O)Cn3nc(C)cc3C)cc12 (stereo unspecified) |  | inconclusive: 35.5 µM [inhibitor, single point]
12 | CC[C@@]1(O)C(=O)OCc2c1cc1n(c2=O)Cc2cc3ccccc3nc2-1 |  | inconclusive: 5.62 µM [inhibitor, single point]
13 | O=C(c1ccc(Cl)cc1)C1CCCN(Cc2cccc3cnccc23)C1 (stereo unspecified) |  | active: 20 µM
14 | Cc1ccc(/C=C/C2=NN(Cc3ccc(Cl)c(Cl)c3)C(=O)CC2)cc1 |  | inconclusive: 15.8 µM [inhibitor, single point]
15 | Cc1cccc(NP(=O)(Oc2ccccc2F)Oc2ccccc2F)c1C |  | inconclusive: 35.5 µM [inhibitor, single point]
16 | CC1C2Cn3c(nc4ccccc43)C1N(C)O2 (stereo unspecified) | inactive: -32.9% [at 9.22 µM] | 
17 | Cc1cc([N+](=O)[O-])c2ccccc2[n+]1[O-] |  | inconclusive: 3.55 µM [inhibitor, single point]
18 | CCOC(=O)C1=C(NC(=S)NC(=O)c2ccccc2)c2ccccc2CC12CCCC2 | inactive: -12.2% | 
19 | CN(Cc1ccc(OC(F)F)cc1)Cc1nc2c(Br)cc(Br)cc2c(=O)[nH]1 |  | inconclusive: 15.8 µM [inhibitor, single point]
20 | Cc1nn(-c2ccccc2)c2c1C(c1ccc3c(c1)OCO3)SCC(=O)N2 (stereo unspecified) | inactive: -5.28% | 
21 | COC(=O)C[C@]1(C(=O)OC)CN(C#N)N(c2ccc(Cl)cc2)C12c1ccccc1-c1ccccc12 |  | active: 5.62 µM
22 | Cc1ccc(N2C(=O)NC(=O)/C(=C/c3ccc(OC(=O)c4cccs4)cc3)C2=O)cc1 | inactive: -1.81% | 
23 | Fc1ccc(C(OCCN2CCN(CCCc3ccccc3)CC2)c2ccc(F)cc2)cc1 |  | active: 25.1 µM
24 | COc1ccccc1-n1c(O)c(C=NCc2ccc3c(c2)OCO3)c(=O)[nH]c1=O | inactive: -6.46% | 

Row | Compound | activity change, negative = inhibition | Potency
25 | C/C(=N\Nc1ccccc1)c1c(O)n(-c2ccccc2)c(=O)[nH]c1=O | inactive: 21.3% [at 9.22 µM] | 
26 | CN1CCC(O)(c2ccccc2)C(C(=O)c2ccccc2)C1 (stereo unspecified) | inactive: 20.2% | 
27 | CCC(=NCCc1c[nH]c2ccccc12)c1c(O)n(C)c(=O)n(C)c1=O |  | active: 7.94 µM
28 | CCc1ccc(N2C(=O)NC(=O)/C(=C/c3cccn3CCOc3ccc(C)cc3)C2=O)cc1 |  | inconclusive: 20 µM [activator, single point]
29 | CN(C)c1ccc(/C=C2\C(=O)NC(=O)N(Cc3ccc(F)cc3)C2=O)cc1 | inactive: 29% [at 9.22 µM] | 
30 | COc1cc(Cn2c(=O)oc3ccc(C)cc32)ccc1OC(C)C |  | inconclusive: 28.2 µM [inhibitor, single point]
31 | O=[N+]([O-])c1ccc(N2CCOCC2)c2ccncc12 |  | inconclusive: 25.1 µM [inhibitor, single point]
32 | Oc1ccc(/C=N/NP(=S)(c2ccccc2)c2ccccc2)cc1O |  | inconclusive: 15.8 µM [activator, partial curve]
33 | N#CC1=C(N)Oc2c(c(=O)oc3ccccc23)C1c1ccc([N+](=O)[O-])o1 (stereo unspecified) |  | inconclusive: 20 µM [activator, partial curve, poor fit]
34 | Cc1cc(OC(=O)N(C)C)n(-c2ccccc2)n1 | inactive: 4.78% [at 9.22 µM] | 
35 | COc1ccc(N2C(=O)NC(=O)/C(=C/c3ccc(N4CCOCC4)cc3)C2=O)cc1 | inactive: 4.91% | 
36 | O=C(N/N=C/C1C(=O)NC(=S)N(c2ccccc2)C1=O)c1cc(Br)c(O)c(Br)c1 (stereo unspecified) | inactive: 18.9% | 
37 | CCN1/C(=C\C=C\C2=[N+](CC)c3ccccc3C2(C)C)C(C)(C)c2ccccc21 |  | active: 0.562 µM
38 | O=C(Nc1ccncc1)c1cccn(Cc2ccccc2)c1=O |  | inconclusive: 10 µM [inhibitor, partial curve]
39 | Cc1ccc(C)c(N2CCN(S(=O)(=O)c3ccc4c(c3)oc(=O)n4C)CC2)c1 |  | inconclusive: 35.5 µM [inhibitor, single point]
40 | O=C(N/N=C/c1c(O)n(CCC2=CCCCC2)c(=S)[nH]c1=O)c1ccccc1 |  | inconclusive: 14.1 µM [inhibitor, single point]
41 | CCCc1nc2ccc(Br)cc2c(=O)n1-c1ccc([N+](=O)[O-])c(C(F)(F)F)c1 |  | inconclusive: 14.1 µM [inhibitor, single point]
42 | Cc1ccc(N2C(=O)NC(=O)C(CCc3ccccn3)(Cc3cccc(Cl)c3Cl)C2=O)cc1 (stereo unspecified) |  | inconclusive: 3.16 µM [inhibitor, partial curve]
43 | CCN(CCNc1ccc([N+](=O)[O-])c2cccnc12)S(=O)(=O)c1ccccc1 | inactive: 4.03% | 
44 | CN1/C(=C\C=C2C(=O)NC(=S)NC2=O)C(C)(C)c2ccccc21 | inactive: -32.3% | 
45 | Cc1cc(N2CCCC2)ccc1C=C(C#N)C#N | inactive: -18.3% | 
46 | C=CCN(CC=C)Cc1c[nH]c2ccccc12 |  | inconclusive: 35.5 µM [inhibitor, single point]
47 | C(#CCN1CCOCC1)COC/C=C/c1ccccc1 | inactive: -2.8% | 
48 | Cn1c(O)c(C=Nc2ccc(N3CCOCC3)cc2)c(=O)n(C)c1=S |  | inconclusive: 35.5 µM [activator, single point]

Row | Compound | activity change, negative = inhibition | Potency
49 | COc1ccc(Cn2c(N)c(C(=O)NCc3ccco3)c3nc4ccccc4nc32)cc1OC |  | inconclusive: 20 µM [inhibitor, single point]
50 | O=C1C2CCN(CC2)[C@@H]1Cc1ccc2ccccc2c1O | inactive: -0.914% | 
51 | O=Cc1cn(Cc2ccccc2[N+](=O)[O-])c2ccccc12 |  | active: 14.1 µM
52 | CC(C)N1C(=O)/C(=C/C=C/c2ccco2)C(=O)N(Cc2ccco2)C1=O |  | inconclusive: 25.1 µM [activator, partial curve]
53 | Cc1[nH]c2ccccc2c1C1=CCNCC1 |  | inconclusive: 35.5 µM [inhibitor, single point]
54 | CCOc1ccc(C2SCC(=O)Nc3c2c(=O)[nH]n3C2CCCCCC2)cc1 (stereo unspecified) |  | inconclusive: 2.24 µM [activator, full curve, poor fit]
55 | CCOc1cc(C=C2C(=O)NC(=O)NC2=O)cc([N+](=O)[O-])c1O | inactive: -3.16% [at 9.22 µM] | 
56 | Cc1cc(=O)[nH]c(CCl)n1 |  | inconclusive: 22.4 µM [activator, partial curve]
57 | CC(=O)c1c(O)n(-c2cccc(Cl)c2)c(=O)[nH]c1=O (tested in a mixture with another compound) | inactive: 19.2% [at 9.22 µM] | 
58 | Cc1cc(N2C(=O)CC(N3CCC(n4c(=O)[nH]c5ccccc54)CC3)C2=O)no1 (stereo unspecified) |  | inconclusive: 0.0891 µM [inhibitor, full curve, poor fit]
59 | CCCCCCn1c(N)c(C(=O)NCCN2CCOCC2)c2nc3ccccc3nc21 |  | active: 31.6 µM
60 | CC(C)C(=O)c1cn(Cc2ccc(C#N)cc2)c2ccccc12 |  | inconclusive: 11.2 µM [inhibitor, single point]
61 | COc1ccc(NC(=S)NC(NC(=O)CF)C(Cl)(Cl)Cl)c([N+](=O)[O-])c1 (stereo unspecified) |  | inconclusive: 35.5 µM [inhibitor, single point]
62 | CC(=O)N1CCN(c2ccc(N=Cc3c(O)n(Cc4ccccc4)c(=O)[nH]c3=O)cc2)CC1 |  | inconclusive: 0.501 µM [activator, full curve, poor fit]
63 | NCC(O)c1cccc(O)c1 (stereo unspecified) | inactive: -15.7% | 
64 | O=C1/C(=C\c2cc3c(cc2Br)OCO3)N2CCC1CC2 |  | inconclusive: 0.1 µM [inhibitor, full curve, poor fit]
65 | O=c1c2ccccc2nc(CNCc2ccco2)n1-c1ccc(F)cc1 | inactive: 14.9% | 
66 | O=c1c2ccccc2nc(CSc2ncnc3nc[nH]c23)n1-c1ccccc1Cl | inactive: 0.373% | 
67 | CN1CC(C(=O)c2ccccc2)C(C(=O)c2ccccc2)C1 (stereo unspecified) | inactive: -0.713% | 
68 | C/C(=N\NC(=O)c1ccncc1)c1c(O)n(Cc2ccccc2)c(=O)[nH]c1=O | inactive: -16.5% [at 9.22 µM] | 
69 | CCn1c(O)c(C=Nc2ccc(S(N)(=O)=O)cc2)c(=O)n(CC)c1=S |  | inconclusive: 35.5 µM [inhibitor, single point]
70 | COc1ccc(C(C)=O)cc1CC(C(=O)c1ccc(C)cc1)N(C)C (stereo unspecified) |  | inconclusive: 35.5 µM [activator, single point]
71 | CC(C)N1CC=C(c2c[nH]c3ccccc23)CC1 |  | inconclusive: 11.2 µM [inhibitor, single point]

Single values from the results shown.
activity change, negative = inhibition with O=c1c2ccccc2nc(CNCc2ccco2)n1-c1ccc(F)cc1 is entered as inactive: 14.9%
Potency with COc1ccc(NC(=S)NC(NC(=O)CF)C(Cl)(Cl)Cl)c([N+](=O)[O-])c1 (stereo unspecified) is entered as inconclusive: 35.5 µM [inhibitor, single point]
activity change, negative = inhibition with CCOc1cc(C=C2C(=O)NC(=O)NC2=O)cc([N+](=O)[O-])c1O is entered as inactive: -3.16% [at 9.22 µM]

Source: PubChem BioAssay AID1688 (National Center for Advancing Translational Sciences (NCATS), 2009)
